Data source: PubChem BioAssay AID686938 (Drosophila RNAi Screening Center, 2013)

Purpose: 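Fly genes required for calcium entry once internal stores are emptied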 (primary screen)
Cells: Drosophila S2R+ cells
Reagent: long dsRNA against Drosophila genes, about 0.25 µg dsRNA per well, roughly 10,000 cells
Duration: 5 days of knock-down before the calcium assay
Challenge: thapsigargin (SERCA pump blocker) to empty calcium stores; entry signal taken 4 min after adding it
Read-out: 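Per-well fluo-4 fluorescence in two replicates, unnormalised, measured in resting cells and 4 min after store depletion by the SERCA blocker thapsigargin; ratio of the two present in few wells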
Reading the numbers: calcium entry signal: higher = stronger calcium signal after store depletion; entry to resting ratio: higher = more calcium entry relative to resting level; resting calcium signal: higher = higher resting calcium signal
Call rule: 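Called when the plate z-score of the entry-to-rest ratio, mean of duplicates, falls below −3; wells with low overall dye signal (Fmax z below −2) or more than five off-targets excluded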
Meaning of the calls: active = strongly reduced calcium entry; inactive = no strong reduction
The deposit covers about 23,000 reagents; below is an unselected part of those with a known target gene and a result. In the full data, 75 (0.33%) got an active call. 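Raw plate signals without normalisation; calls rest on plate z-scores that were not deposited; ratio present for only 364 wells.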 Reagents against one gene are numbered here. A plus sign joins genes that one reagent is predicted to hit. Not given: the dose of the treatment.

gene knocked down,reagent,"calcium entry signal, replicate 1 (fluorescence units)","calcium entry signal, replicate 2 (fluorescence units)",entry to resting ratio,"resting calcium signal, replicate 1 (fluorescence units)","resting calcium signal, replicate 2 (fluorescence units)",Call
Fkbp59,1,4.16e7,6.71e7,,1.97e7,2.60e7,inactive
Rh4,1,3.11e7,2.64e7,,1.56e7,1.38e7,inactive
Acp26Ab,1,3.78e7,3.30e7,,1.81e7,1.51e7,inactive
Ir60b,1,3.60e7,4.85e7,,1.94e7,2.25e7,inactive
CG31743 + CG34313,1,4.61e7,,,2.26e7,,inactive
CG31743 + CG34313,2,3.67e7,2.78e7,,1.74e7,1.20e7,inactive
mtd,1,2.55e7,3.58e7,,1.20e7,1.58e7,inactive
mtd,2,2.80e7,3.68e7,,1.24e7,1.52e7,inactive
mtd,3,4.06e7,3.93e7,,2.07e7,1.89e7,inactive
Root,1,5.41e7,5.25e7,,2.54e7,2.06e7,inactive
GILT3,1,3.55e7,3.44e7,,1.73e7,1.44e7,inactive
emei,1,3.10e7,3.75e7,,1.55e7,1.93e7,inactive
emei,2,2.37e7,1.90e7,,1.27e7,1.05e7,inactive
cu,1,1.79e7,2.11e7,,1.03e7,1.04e7,inactive
cu,2,2.45e7,1.88e7,,1.29e7,1.06e7,inactive
pim,1,3.04e7,,,2.17e7,,inactive
sbm,1,3.81e7,3.47e7,,1.92e7,1.70e7,inactive
CG13326,1,3.85e7,4.31e7,,1.85e7,1.97e7,inactive
slx1,1,3.10e7,5.77e7,,1.48e7,2.61e7,inactive
Syt14,1,3.50e7,5.65e7,,1.71e7,2.30e7,inactive
Obp22a,1,3.39e7,3.59e7,,1.83e7,1.71e7,inactive
Mi-2 + Su(Tpl),1,3.27e7,3.39e7,,1.74e7,1.57e7,inactive
DCTN6-p27,1,4.38e7,4.55e7,,2.27e7,2.30e7,inactive
DCTN6-p27,2,3.15e7,3.44e7,,1.68e7,1.76e7,inactive
CG11437,1,3.01e7,5.58e7,,1.44e7,2.40e7,inactive
Chchd3,1,2.36e7,4.26e7,,1.32e7,2.15e7,inactive
Taf9,1,2.49e7,2.64e7,,1.26e7,1.34e7,inactive
CG12229,1,5.35e7,6.47e7,,2.42e7,2.76e7,inactive
CG14259,1,3.59e7,4.78e7,,1.88e7,2.13e7,inactive
Coq2,1,3.12e7,2.67e7,,1.48e7,1.29e7,inactive
Coq2,2,2.81e7,2.94e7,,1.53e7,1.43e7,inactive
CG5273,1,4.87e7,5.27e7,2.1,2.29e7,2.13e7,inactive
betaTub60D,1,4.25e7,4.00e7,,2.20e7,1.78e7,inactive
betaTub60D,2,4.09e7,4.67e7,,1.86e7,2.64e7,inactive
CG13039,1,4.20e7,3.25e7,,1.77e7,1.32e7,inactive
CG30088,1,3.28e7,3.82e7,,1.79e7,1.78e7,inactive
CCHa1-R,1,4.15e7,5.95e7,,1.93e7,2.69e7,inactive
CCHa1-R,2,4.60e7,5.62e7,,2.14e7,2.67e7,inactive
dyw,1,3.53e7,4.53e7,2.1,1.65e7,1.88e7,inactive
CG9289,1,3.51e7,5.08e7,,1.73e7,2.20e7,inactive
